Data on one substance can be found in article doi:10.1101/2023.04.19.537590.

No constants are given. Whether binding was seen depends on the method and setting. In cells and extracts the contact can be indirect. Binding can be weak; no strength is given.

This experiment addresses T1, protein phosphatase 1 regulatory subunit 12C (in HL-1 cells) (mouse (endogenous in HL-1)) (UniProt Q3UMT1).
T1 sequence: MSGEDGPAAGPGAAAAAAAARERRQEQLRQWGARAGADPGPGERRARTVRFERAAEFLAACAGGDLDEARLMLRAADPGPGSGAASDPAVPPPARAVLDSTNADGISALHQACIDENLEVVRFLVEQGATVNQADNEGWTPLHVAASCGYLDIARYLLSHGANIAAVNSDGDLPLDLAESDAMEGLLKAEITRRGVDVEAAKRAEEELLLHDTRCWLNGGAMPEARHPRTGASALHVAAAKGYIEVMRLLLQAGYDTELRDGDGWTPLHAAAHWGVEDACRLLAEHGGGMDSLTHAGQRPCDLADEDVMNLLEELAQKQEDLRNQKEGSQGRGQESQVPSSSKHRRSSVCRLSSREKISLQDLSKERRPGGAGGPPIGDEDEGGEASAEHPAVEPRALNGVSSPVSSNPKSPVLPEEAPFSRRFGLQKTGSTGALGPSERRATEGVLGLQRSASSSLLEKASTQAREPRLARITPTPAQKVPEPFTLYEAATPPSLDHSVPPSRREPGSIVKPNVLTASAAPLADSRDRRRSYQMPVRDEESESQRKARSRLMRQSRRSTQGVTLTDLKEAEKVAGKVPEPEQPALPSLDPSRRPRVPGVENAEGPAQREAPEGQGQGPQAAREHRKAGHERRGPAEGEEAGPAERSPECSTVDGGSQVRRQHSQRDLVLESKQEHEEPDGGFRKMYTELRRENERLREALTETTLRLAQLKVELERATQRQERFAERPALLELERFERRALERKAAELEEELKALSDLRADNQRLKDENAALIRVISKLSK
Description: co-IP.

For the substance “protein phosphatase 1 catalytic subunit (in HL-1 cells) (mouse (endogenous in HL-1)) (enzyme)”, the binding result was “binds”.
